Results taken from the odorant receptor screen of Mainland et al. (2015).
The other results are listed elsewhere or left out. Single wells; the ratio to wells without odorant was worked out here, and repeats agree poorly.

test system: OR6J1 R121H/T124A/R226H/P250S/L274S/V279L clone 1714; assay: odorant receptor activation (CRE luciferase / Renilla) (fold of no-odor wells); higher = more activation; settings: 100 µM

Compound	odorant receptor activation
CCCCCCC=O [heptaldehyde]	0.964
COc1cc(C)ccc1O [2-methoxy-4-methylphenol]	0.828
O=C1CCCCCCCCCCCCCCO1 [pentadecalactone]	0.956
CCCCCCOC(=O)CCC [hexyl butyrate]	0.881
CC12CCC(CC1)C(C)(C)O2 [cineole]	0.81
CCCC(=O)O [butyric acid]	0.962
COc1ccccc1O [guaiacol]	0.991
CCCCCCCOC(C)=O [heptyl acetate]	0.838
CCCCCOC(C)=O [n-amyl acetate]	1.05
CCCCCCCCC=O [nonyl aldehyde]	0.707
CC(C)CC(=O)O [isovaleric acid]	1.93
CC(C)C=O [isobutyraldehyde]	1.85
CCCCCCCC=O [octyl aldehyde]	0.92
CC1=CCC(C(C)(C)O)CC1 (stereo not given) [terpineol]	1.24
CC(C)(O)CCCC1=CCC(C=O)CC1 (stereo not given) [lyral]	1.06
CC=Cc1ccc(O)c(OC)c1 [isoeugenol]	3.26
CC/C=C\CCO [cis-3-hexen-1-ol]	0.921
C=C(C)C1CCC2=CC(=O)CC(C)C2(C)C1 (stereo not given) [amyl laurate]	1.77
CCCCCCCCCCC=O [undecanal]	1.18
C=C(C)C1CC=CCC1 (stereo not given) [r-limonene]	0.862

2 of the compounds above, as a markdown table:

| Compound | odorant receptor activation |
| --- | --- |
| COc1ccccc1O [guaiacol] | 0.991 |
| CCCCCCCCCCC=O [undecanal] | 1.18 |
